# PubChem BioAssay AID743255 (National Center for Advancing Translational Sciences (NCATS), 2014)
# Protein sequences, listed by entry. Tags and fused reporters are not part of them. Lines headed by an entry give the natural chain unless they say otherwise; changes in a name come on top.
# UniProt O94782: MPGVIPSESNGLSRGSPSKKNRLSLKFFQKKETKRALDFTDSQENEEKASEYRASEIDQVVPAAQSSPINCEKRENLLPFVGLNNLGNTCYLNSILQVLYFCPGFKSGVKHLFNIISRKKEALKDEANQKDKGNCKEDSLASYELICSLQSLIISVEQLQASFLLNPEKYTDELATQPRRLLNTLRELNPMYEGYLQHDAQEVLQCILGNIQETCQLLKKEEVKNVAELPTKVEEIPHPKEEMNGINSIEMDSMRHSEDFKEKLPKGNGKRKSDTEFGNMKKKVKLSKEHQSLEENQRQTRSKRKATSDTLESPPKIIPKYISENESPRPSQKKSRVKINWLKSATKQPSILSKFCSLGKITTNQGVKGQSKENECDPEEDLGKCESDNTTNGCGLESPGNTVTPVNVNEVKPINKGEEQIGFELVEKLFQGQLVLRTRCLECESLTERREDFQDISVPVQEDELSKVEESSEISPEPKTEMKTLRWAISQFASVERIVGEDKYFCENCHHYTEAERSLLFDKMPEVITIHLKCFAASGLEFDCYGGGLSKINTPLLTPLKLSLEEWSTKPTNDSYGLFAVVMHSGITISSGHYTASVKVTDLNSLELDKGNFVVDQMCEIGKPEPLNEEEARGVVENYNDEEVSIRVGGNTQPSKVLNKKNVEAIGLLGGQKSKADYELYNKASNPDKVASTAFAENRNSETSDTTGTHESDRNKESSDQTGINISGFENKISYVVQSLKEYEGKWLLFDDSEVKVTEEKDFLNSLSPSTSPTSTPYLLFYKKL
# Among all 390,000 compounds or so, about 910 (0.23%) were called active. This list was built around the results that the source calls inconclusive (neither active nor inactive); the mix of calls is not that of the screen. Calls come from the whole dose curve; as a rule, active = well fitted inhibition curve with a large enough effect; inconclusive = small, poorly fitted or top-dose-only effect; inactive = no such curve, though single readings can be large or run the other way. Potencies of inconclusive entries are doubtful fits and often do not repeat.
# Biological target: Ubiquitin carboxyl-terminal hydrolase 1 (Homo sapiens) (UniProt O94782)
# Assay: Inhibitors of USP1/UAF1: Primary Screen; note: nearly all actives have a fitted effect of over 60% in size
# Conditions: recombinant USP1/UAF1, Ub-Rhodamine cleavage fluorescence; activity change, negative = inhibition: at 57.1 µM (top of the series)
# Outline: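 High-throughput fluorogenic screen: 1nM USP1/UAF1 complex, Ub-Rho substrate 150nM final, 50mM HEPES pH 7.8 with 0.5mM EDTA, 0.1 mg/ml BSA, 1mM TCEP and 0.01% Tween-20.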
# % is set by controls: 0 for no effect and ±100 for the full control effect; potency is the fitted concentration of half-maximal effect.
Structure (SMILES),"activity change, negative = inhibition",Potency
O=C(CN1N=C(c2ccc(Cl)cc2)CCC1=O)NCc1ccc(F)cc1,inactive: -25.3%,
CC(=O)c1ccc(NC(=O)COC(=O)CCc2ccc(S(=O)(=O)N3CCOCC3)cc2)cc1,,"inconclusive: 0.316 µM [inhibitor, full curve, poor fit]"
Cc1cc(NC(=O)C2CCCN(S(=O)(=O)c3cccc4nonc34)C2)ccc1Br (centres undefined),inactive: -1.62%,
COCCn1c(SCC(=O)c2c(N)n(C3CC3)c(=O)[nH]c2=O)nc2ccccc21,inactive: -24.2%,
Cc1ccc(Nc2nc3ccccc3c(=O)[nH]2)cc1C,inactive: -6.71%,
Cc1cccc(S(=O)(=O)c2cn(Cc3ccccc3)c3cc(N4CCCC(C)C4)c(F)cc3c2=O)c1 (centres undefined),,"inconclusive: 8.91 µM [inhibitor, full curve, poor fit]"
CCCCN1CC(Br)C(=O)NC1=O (centres undefined),,"inconclusive: 7.08 µM [inhibitor, single point]"
CCOC(=O)c1sc(N)c(C(=O)Nc2ccccc2OC)c1C,,"inconclusive: 39.8 µM [inhibitor, partial curve, poor fit]"
CCCCCOc1ccc(/C=N/NC(=O)c2nnn(-c3nonc3N)c2CN2CCCCCC2)cc1,,"inconclusive: 0.794 µM [inhibitor, full curve, poor fit]"
O=C(Nc1cccc2ccccc12)c1cccc(F)c1,,"inconclusive: 56.2 µM [inhibitor, partial curve, poor fit]"
O=C1CC2C(CC(OC(=O)c3ccc(-c4ccccc4)cc3)C2CO)O1 (centres undefined),inactive: -16.7%,
Cn1c(=O)c2c(nc(NC3CCCCC3)n2Cc2ccccc2)n(C)c1=O,,"inconclusive: 0.355 µM [inhibitor, full curve, poor fit]"
Cc1ccc(-c2cc(C(F)(F)F)n3nc(C(=O)Nc4ccc(C#N)cc4)cc3n2)cc1,,"inconclusive: 2.82 µM [inhibitor, full curve, poor fit]"
CCn1c(/C=N/c2nc3ccccc3n2C)nc2ccccc21,,"inconclusive: 0.251 µM [inhibitor, full curve, poor fit]"
O=C(c1ccccc1)c1ccc2nc(Nc3ccccc3)c3nncn3c2c1,,"inconclusive: 44.7 µM [inhibitor, partial curve, poor fit]"
COc1ccc(-n2nc3c(N4CCC(C(=O)NCc5cccc(C)c5)CC4)nnc(C)c3c2C)cc1,inactive: -6.43%,
CCOc1ccccc1-n1c(=O)c2ccccc2c2ccccc2c1=O,,"inconclusive: 35.5 µM [inhibitor, partial curve]"
CCN(CC)c1ccc2cc(C#N)c(=O)oc2c1,,"inconclusive: 5.62 µM [inhibitor, partial curve]"
COc1nc2c(s1)C(=O)NCCC2,inactive: -16.3%,
CC(=O)c1ccc(S(=O)(=O)N2CCN(c3nc(-c4cccnc4)nc4ccccc34)CC2)cc1,inactive: -22.9%,
CN(CCc1ccccc1)C(=O)CC1C(=O)NCCN1Cc1ccccn1 (centres undefined),,"inconclusive: 44.7 µM [inhibitor, partial curve, poor fit]"
COc1ccc(Cl)cc1NC(=O)[C@H]1O[C@@H]2OC(C)(C)O[C@@H]2[C@H]2OC(C)(C)O[C@H]21,,"inconclusive: 5.62 µM [inhibitor, partial curve, poor fit]"

# Single values from the entries so far:
# COc1ccc(-n2nc3c(N4CCC(C(=O)NCc5cccc(C)c5)CC4)nnc(C)c3c2C)cc1 – activity change, negative = inhibition: inactive: -6.43%
# O=C(Nc1cccc2ccccc12)c1cccc(F)c1 – Potency: inconclusive: 56.2 µM [inhibitor, partial curve, poor fit]

# Next entries:

Structure (SMILES),"activity change, negative = inhibition",Potency
COC(=O)c1sc(Nc2ccccc2)nc1C,,"inconclusive: 0.398 µM [inhibitor, full curve, poor fit]"
O=C(CCN1C(=O)c2cccc3cccc(c23)C1=O)N1CCOCC1,inactive: -10.3%,
Cc1nnc(N/N=C\c2ccc(-c3cccc(C(=O)O)c3)o2)n1N,,"inconclusive: 25.1 µM [inhibitor, partial curve]"
Cc1ccc(NC(=O)c2sc3nc(N)c(C#N)cc3c2N)cc1,,"inconclusive: 25.1 µM [inhibitor, partial curve]"
CCCCCn1c(C)c2c(OCC)cccc(=O)c2c1C,,"inconclusive: 63.1 µM [inhibitor, partial curve, poor fit]"
COc1ccc(C(=O)NCCSC2CCCCC2)cc1,inactive: -4.24%,
COc1ccccc1CNC(=O)C1CCN(S(=O)(=O)Cc2ccccc2)CC1,,"inconclusive: 0.355 µM [inhibitor, full curve, poor fit]"
CCCCC(=O)Nc1ccc(C(=O)Nc2ccc(OC)cc2[N+](=O)[O-])cc1,,"inconclusive: 35.5 µM [inhibitor, partial curve, poor fit]"
Cc1ccc(Nc2ncnc3c2nc2n3CCCC2)cc1F,,"inconclusive: 5.62 µM [inhibitor, full curve, poor fit]"
COc1ccc(C(=O)Nc2ccc(NC(=O)c3ccco3)cc2)cc1,inactive: -1.06%,
CN1CCc2c(sc3c2C(=O)NC(c2ccco2)N3)C1 (centres undefined),,"inconclusive: 31.6 µM [inhibitor, single point]"
CCOC(=O)c1c(S(=O)(=O)N2CCC(C(=O)NCc3ccccc3Cl)CC2)c(C)n(C)c1C,,"inconclusive: 3.16 µM [inhibitor, full curve]"
Fc1ccccc1-c1nc(-c2ccncc2)no1,,"inconclusive: 50.1 µM [inhibitor, partial curve, poor fit]"
CCn1c(SCC(=O)Nc2cc(C(C)(C)C)nn2-c2ccccc2)nnc1-c1cccs1,inactive: 0.873%,
Cc1cc(N2CCOCC2)ccc1/C=C1\SC(=O)N(C(C)C)C1=O,,"inconclusive: 44.7 µM [inhibitor, partial curve, poor fit]"
Cc1cccc(N(C)S(=O)(=O)c2ccc3c(c2)NC(=O)CC(=O)N3)c1,,"inconclusive: 8.91 µM [inhibitor, partial curve, poor fit]"
CCSc1nnc(Cc2cc(=O)[nH]c(=O)[nH]2)n1-c1ccc(Cl)cc1,,"inconclusive: 44.7 µM [inhibitor, partial curve]"
CC(=O)c1ccc(N2CCC(c3cc(-c4ccc(Cl)cc4Cl)n[nH]3)CC2)c([N+](=O)[O-])c1,inactive: -7.47%,
Cc1ccc(NC(=O)C2CCN(S(=O)(=O)c3ccc4c(c3)NC(=O)C(C)S4)CC2)cc1Cl (centres undefined),inactive: -16.9%,
CCOc1ccc(CCNC(=O)c2ccc(CSCc3ccccc3C)o2)cc1OCC,,"inconclusive: 6.31 µM [inhibitor, partial curve]"
Cc1ccccc1NC(=O)NC1(C(=O)N2CCN(C)CC2)CCCCC1,,"inconclusive: 44.7 µM [inhibitor, partial curve, poor fit]"
COc1ccc(-c2cc(C(F)(F)F)n3nc(C(=O)NCc4ccco4)cc3n2)cc1,,"inconclusive: 0.562 µM [inhibitor, full curve, poor fit]"

Structure (SMILES),"activity change, negative = inhibition",Potency
O=C(Nc1nc2ccccc2n1CCN1CCOCC1)c1ccccc1,,"inconclusive: 25.1 µM [inhibitor, single point]"
CCN(CC)Cc1cc(O)c(CN(CC)CC)cc1O,,"inconclusive: 35.5 µM [inhibitor, partial curve]"
COCCCNc1nc2c(c(=O)[nH]c(=O)n2C)n1CC(O)COc1ccc(Cl)cc1 (centres undefined),,"inconclusive: 3.98 µM [inhibitor, partial curve]"
Cc1c(C(C)CCCO)oc(=O)c2c1Oc1c(C)c(C(C)C[C@@H](C)O)oc(=O)c1C2 (some centres undefined),,"inconclusive: 79.4 µM [inhibitor, partial curve, poor fit]"
O=S(=O)(c1ccccc1)n1nc(-c2ccc(Cl)cc2)nc1NCc1ccccc1,,"inconclusive: 22.4 µM [inhibitor, partial curve, poor fit]"
CCn1c(SCC(=O)OC)nnc1-c1ccccc1,,"inconclusive: 3.16 µM [inhibitor, partial curve]"
O=C(O)CC(C(=O)O)N1C(=O)/C(=C/c2ccc(-c3nc4ccccc4s3)o2)SC1=S (centres undefined),,active: 28.2 µM
Nc1cc(=O)[nH]c(SCC(=O)Nc2cccc([N+](=O)[O-])c2)n1,,"inconclusive: 50.1 µM [inhibitor, partial curve, poor fit]"
COc1ccccc1OCC(=O)NCCCN1CCOCC1,inactive: -1.19%,
CC(NC(=O)C1CCN(C(=O)c2ccc(F)cc2)CC1)c1ccc(S(N)(=O)=O)cc1 (centres undefined),,"inconclusive: 7.94 µM [inhibitor, partial curve, poor fit]"
N#C/C(=C/c1ccc(N2CCCCCC2)o1)c1ccc(Cl)cc1,,"inconclusive: 5.62 µM [inhibitor, partial curve]"
COc1ccc(CCNC(=O)CCN2C(=O)C3CC=CCC3C2=O)cc1OC (centres undefined),inactive: 1.84%,
COC(=O)c1cc2c(-c3ccccc3)c(C)c3ccccn3c-2c1C(=O)OC,,"inconclusive: 35.5 µM [inhibitor, partial curve]"
CCC1(C)CC(=O)c2c(ccc3oc(C(=O)Nc4ccc(C(C)=O)cc4)c(C)c23)O1 (centres undefined),,"inconclusive: 50.1 µM [inhibitor, partial curve, poor fit]"
CCc1nc2ccc(C(=O)N3CCN(c4cccc(Cl)c4)CC3)cc2nc1CC,,"inconclusive: 50.1 µM [inhibitor, partial curve, poor fit]"
CCC(=O)N(CCC(Cc1ccccc1)c1ccco1)Cc1ccco1 (centres undefined),inactive: -14%,
CC(=O)c1ccc(Nc2cc(C)nc3nc(Cc4ccccc4)nn23)cc1,,"inconclusive: 39.8 µM [inhibitor, partial curve, poor fit]"
CC(C)N1CCc2c(sc(NC(=O)c3ccc4ccccc4c3)c2C(N)=O)C1,,"inconclusive: 50.1 µM [inhibitor, partial curve, poor fit]"
Nc1cc(=O)nc(SCC(=O)Nc2ccccc2)n1CCc1ccccc1,,"inconclusive: 8.91 µM [inhibitor, partial curve, poor fit]"
CC(=O)Nc1ccc(Nc2ccc3cc(S(=O)(=O)N4CCCCC4)ccc3n2)cc1,,"inconclusive: 5.01 µM [inhibitor, partial curve]"

# Pulled by compound from the list above, two records:
Structure (SMILES),"activity change, negative = inhibition",Potency
CC(=O)c1ccc(NC(=O)COC(=O)CCc2ccc(S(=O)(=O)N3CCOCC3)cc2)cc1,,"inconclusive: 0.316 µM [inhibitor, full curve, poor fit]"
CC(=O)c1ccc(N2CCC(c3cc(-c4ccc(Cl)cc4Cl)n[nH]3)CC2)c([N+](=O)[O-])c1,inactive: -7.47%,
